# Some of the results follow.
# System: T1, CTL2-GFP (C. trachomatis L2/434/Bu, GFP-expressing)
# T1 construct: L2/434/Bu, GFP-expressing
# Parameters: species or system HeLa; Intracellular C. trachomatis growth in HeLa cells, bulk GFP fluorescence relative to DMSO
# Details: bulk GFP, single well; 28.5 h, 10 µM; inhibitor
row,SMILES,% of control remaining
1,CCN1C(=O)c2ccccc2C(=O)[C@@]2(C)CN(C(=O)C(C)C)C[C@@H]12 [CBK281680],130.1%
2,CCOc1ccc(-c2cncc(NCCc3ccncc3)n2)cc1 [CBK065774],192.74%
3,CC(C)(C)c1cc(C[C@H]2CNCC[C@H]2CC(=O)Nc2nccs2)no1 [CBK288798],125.936%
4,Cc1cc(I)ccc1OCCCCN1CCN(C)CC1 [CBK269652C],140.927%
5,O=C(NCc1ccncc1)C1CCCN(c2nc3c(-c4ccccc4)csc3c(=O)[nH]2)C1 (stereo not drawn) [CBK215493],108.839%
6,CC(C)CCN1CCn2nc(CNc3cnccn3)cc2C1 [CBK307540],118.08%
7,O=C(NCCN1CCCC1)c1cc2cc(Cl)ccc2[nH]1 [CBK107267],71.8978%
8,Cc1nn(C)c(C)c1NC(=O)CN1CCN(c2cccc(Cl)c2)CC1 [CBK306052],134.194%
9,O=C1NCC2(C/C=C/CCOc3ccccc31)CCN(Cc1ccccn1)CC2 [CBK292159],116.979%
10,Cc1nc(C)c(C(=O)C2=C(O)C(=O)N(CCCN3CCOCC3)C2c2ccncc2)s1 (stereo not drawn) [CBK235187],159.717%
11,O=C(NCC1COc2ccccc2O1)C1(c2ccccc2)CCCC1 (stereo not drawn) [CBK149524],88.4659%
12,Cc1cc(C)n(C(C(=O)NCC2(C)COC2)C(C)C)n1 (stereo not drawn) [CBK281758],125.361%
13,OCCN1CCN(c2cc(N3CCN(c4ccccn4)CC3)n3nccc3n2)CC1 [CBK037129],176.024%
14,Cn1cc(CCNC(=O)N2CCCN(Cc3cccs3)CC2)cn1 [CBK305393],134.231%
15,CN(C)CCCn1c(=O)n(CC(=O)O)c(=O)c2c3c(sc21)CCC3 [CBK286783],116.846%
16,CC(=O)Nc1ccc(S(=O)(=O)N2CCC(n3c(=O)[nH]c4ccccc43)CC2)cc1 [CBK149696],120.658%
17,CN1CCN(C(=O)c2ccc(-c3cccc(C(F)(F)F)c3)nc2N2CCOCC2)CC1 [CBK106194],111.504%
18,CC(NC(=O)CCn1c(C(F)F)cc2cccnc21)c1ccncc1 (stereo not drawn) [CBK285069],135.285%
19,CCN1CCN(Cc2c(C(C)(C)C)[nH]c3ncccc23)CC1 [CBK285341],120.471%
20,Cc1nc(C2CCCN(C(=O)c3cccnc3)C2)c2sccn12 (stereo not drawn) [CBK285233],133.186%
21,Cc1ccc(C(=O)NCCN2CCC(O)(c3ccc(F)cc3)CC2)o1 [CBK283167],112.224%
22,C=CCOc1ccc(C(=O)C2=C(O)C(=O)N(Cc3cccnc3)C2c2ccc(Cl)cc2)c(C)c1 (stereo not drawn) [CBK264716],119.986%
23,CSCCCNC(=O)c1cnn2c(C)c(Cc3cccnc3)c(C)nc12 [CBK162164],110.864%
24,NS(=O)(=O)c1ccc(NC(=O)CN2CCN(c3ccc([N+](=O)[O-])cc3)CC2)cc1 [CBK266232],150.872%

# Among those listed so far, these contain a tert-butyl group:
row,SMILES,% of control remaining
3,CC(C)(C)c1cc(C[C@H]2CNCC[C@H]2CC(=O)Nc2nccs2)no1 [CBK288798],125.936%
19,CCN1CCN(Cc2c(C(C)(C)C)[nH]c3ncccc23)CC1 [CBK285341],120.471%

# Later entries:

row,SMILES,% of control remaining
1,CCCN(Cc1nccn1C)C(=O)Cn1nc(C)c2ccccc2c1=O [CBK307441],130.852%
2,CCN(Cc1ccncc1)C(=O)NCc1ccc2c(c1)OCO2 [CBK145056],80.4075%
3,Cc1nc2ccc(C(=O)NC3=NN(c4ccccc4)C(=O)C3)cn2c1N(C)C(=O)CCc1ccccc1 [CBK146817],91.0875%
4,O=C(/C=C/c1ccc2c(c1)OCO2)N1CCCC2(CCN(C(=O)c3ccoc3)C2)C1 (stereo not drawn) [CBK131622],107.895%
5,Cc1ccc(C)c(NC(=O)c2sc3cc(C)ccc3c2Cl)c1 [CBK263648],100%
6,O=C1CCCC2=C1C(c1ccccc1O)c1c([nH][nH]c1=O)N2 (stereo not drawn) [CBK288442],140.266%
7,CCC(C)(C)c1ccc(S(=O)(=O)Nc2ccc(F)cc2F)cc1 [CBK200039],121.966%
8,O=C(COc1ccc(S(=O)(=O)N2CCOCC2)cc1)NCc1ccccc1 [CBK268533],107.76%
9,O=c1/c(=C/c2cccnc2)sc2n1CN(c1cccc([N+](=O)[O-])c1)CN=2 [CBK264401],100%
10,CCCC(C)c1cn(CCc2cc(O)nc(C)n2)nn1 (stereo not drawn) [CBK306871],119.729%
11,OC(CN1CCC(Oc2cccc(F)c2)CC1)c1cccs1 (stereo not drawn) [CBK281453],126.85%
12,COC(=O)c1c(NC(=O)CC2Nc3cccc4cccc(c34)NC2=O)sc(C)c1C (stereo not drawn) [CBK267562],158.997%
13,CCn1nccc1C(=O)N1CCC(c2cc3c(C)cccc3cn2)CC1 [CBK282234],118.727%
14,Cc1ccc(S(=O)(=O)N(CC(=O)Nc2cccnc2)c2cc(C)ccc2C)cc1 [CBK264115],123.7%
15,CN(Cc1cnn(C)c1)C(=O)c1cc(O)nc2ccccc12 [CBK251706],114.603%
16,CN(C)S(=O)(=O)c1ccc(C(=O)Nc2cccc(N3Cc4ccccc4C3)c2)cc1 [CBK266025],143.104%
17,COC(=O)[C@H]1CN(C(=O)c2ccncc2)C[C@@H]1c1ccc(F)cc1 [CBK283509],105.502%
18,O=[N+]([O-])c1ccc(-c2nc(-c3ccccc3)c(-c3ccc4oc5ccc(-c6[nH]c(-c7ccc([N+](=O)[O-])cc7)nc6-c6ccccc6)cc5c4c3)[nH]2)cc1 [CBK261434],99.5823%
19,Cc1cc(C)c(NC(=O)C2CCCN2CCCN(C)C)c(C)c1 (stereo not drawn) [CBK278172F],100%
20,Nc1ncnc2c1ccn2[C@H]1C[C@@H](O)[C@@H](CO)O1 [CBK201258],145.402%
21,O=C(c1ccc(F)cc1)C1CCN(CCC(c2ccccc2)c2ccccc2)CC1 [CBK149138],127.281%
22,CS(=O)(=O)Nc1nccnc1N1CCN(Cc2ccccc2)CC1 [CBK084268],101.91%
23,Cc1ccc2c(c1)c(NC(=O)OC(C)C)nn2Cc1cc2c(cc1Cl)OCO2 [CBK048652],140.353%
24,Cc1ccc(C(=O)Nc2ccccc2C(=O)NC(C)C(=O)O)cc1 (stereo not drawn) [CBK263540],100%
